Measured values from paper PMC13216743.
No constants are given. Whether binding was seen depends on the method and setting. For some of these results: In cells and extracts the contact can be indirect. Some entries that bind do so weakly or less than the wild type. Where a sequence is shown, tags or fusion partners need not be part of it.

Experiments:
[1] = target: T1, bacteriophage T4 beta-glucosyltransferase, C-terminally histidine tagged (bacteriophage T4) (UniProt P04547); assay: pull-down; filtered E. coli supernatant with tag-free gp45 mixed with supernatant with C-terminally His-tagged α-GT or β-GT, Ni-NTA agarose, overnight at 4°C; 25 mM Tris-Cl pH 7.5, 150 mM NaCl, 5% glycerol; washed with 20 mM imidazole, eluted with 250 mM imidazole; read by gel bands
T1 sequence: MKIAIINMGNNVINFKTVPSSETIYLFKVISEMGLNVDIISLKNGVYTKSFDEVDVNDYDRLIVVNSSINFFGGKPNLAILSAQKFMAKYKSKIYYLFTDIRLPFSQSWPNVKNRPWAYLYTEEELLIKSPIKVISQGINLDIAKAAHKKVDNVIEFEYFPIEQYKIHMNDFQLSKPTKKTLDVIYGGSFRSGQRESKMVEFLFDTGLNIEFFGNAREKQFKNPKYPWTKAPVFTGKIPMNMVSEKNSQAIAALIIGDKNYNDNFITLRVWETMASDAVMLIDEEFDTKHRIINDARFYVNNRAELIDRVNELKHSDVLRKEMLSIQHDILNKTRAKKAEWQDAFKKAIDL

[2] = target: T2, bacteriophage T4 alpha-glucosyltransferase, C-terminally histidine tagged (bacteriophage T4) (UniProt P04519); assay: as above
T2 sequence: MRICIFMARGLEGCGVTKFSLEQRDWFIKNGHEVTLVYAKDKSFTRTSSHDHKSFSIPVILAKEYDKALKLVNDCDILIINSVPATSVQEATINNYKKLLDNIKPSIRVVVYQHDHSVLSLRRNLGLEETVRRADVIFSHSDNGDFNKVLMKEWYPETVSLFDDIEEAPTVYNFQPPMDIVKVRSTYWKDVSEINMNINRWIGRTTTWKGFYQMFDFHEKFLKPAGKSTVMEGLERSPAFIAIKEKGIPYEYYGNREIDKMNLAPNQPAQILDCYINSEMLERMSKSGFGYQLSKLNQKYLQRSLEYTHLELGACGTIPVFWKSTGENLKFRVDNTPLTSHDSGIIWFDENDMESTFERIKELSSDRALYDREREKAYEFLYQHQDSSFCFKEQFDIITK

[3] = target: T2, bacteriophage T4 alpha-glucosyltransferase, C-terminally histidine tagged (bacteriophage T4); assay: SEC; Superdex 200 Increase 10/300 GL, 25 mM Tris-Cl pH 7.5, 200 mM NaCl, 5% glycerol; oligomeric state estimated from the elution volume; both purified
[4] = target: T1, bacteriophage T4 beta-glucosyltransferase, C-terminally histidine tagged (bacteriophage T4); assay: as above

B1: bacteriophage T4 gp45, sliding clamp protein, tag-free (protein, UniProt P04525 1-228)
chain: MKLSKDTTALLKNFATINSGIMLKSGQFIMTRAVNGTTYAEANISDVIDFDVAIYDLNGFLGILSLVNDDAEISQSEDGNIKIADARSTIFWPAADPSTVVAPNKPIPFPVASAVTEIKAEDLQQLLRVSRGLQIDTIAITVKEGKIVINGFNKVEDSALTRVKYSLTLGDYDGENTFNFIINMANMKMQPGNYKLLLWAKGKQGAAKFEGEHANYVVALEADSTHDF
[1]
  binding: no binding
[2]
  binding: binds

B2: bacteriophage T4 alpha-glucosyltransferase, C-terminally histidine tagged (enzyme, UniProt P04519 1-400)
chain: T2 sequence
[3]
  binding: no binding

B3: bacteriophage T4 beta-glucosyltransferase, C-terminally histidine tagged (enzyme, UniProt P04547 1-351)
chain: T1 sequence
[4]
  binding: no binding
